Source: publication PMC3230587
No constants are given. Whether binding was seen depends on the method and setting. Binding seen in cells or lysates may run through a third protein. Some results given as binding are weak or reduced against the parent protein; the word gives no strength. Sequences can lack the tags named with a protein. Values belong to the binder of their own block, whether it stands above or below them.

Assays:
FLAG-RNH1 (human) = biological target: T1, FLAG-RNH1 (human) (UniProt P13489); assay: co-IP; lysates of transfected 293T cells in IP buffer (150 mM NaCl, 25 mM HEPES-KOH pH 7.5, 0.5% Triton X-100), anti-FLAG M2 affinity agarose 2 hr at 4 C, four washes, immunoblot; for FLAG-RNH1 with or without overexpressed PTEN
T1 sequence: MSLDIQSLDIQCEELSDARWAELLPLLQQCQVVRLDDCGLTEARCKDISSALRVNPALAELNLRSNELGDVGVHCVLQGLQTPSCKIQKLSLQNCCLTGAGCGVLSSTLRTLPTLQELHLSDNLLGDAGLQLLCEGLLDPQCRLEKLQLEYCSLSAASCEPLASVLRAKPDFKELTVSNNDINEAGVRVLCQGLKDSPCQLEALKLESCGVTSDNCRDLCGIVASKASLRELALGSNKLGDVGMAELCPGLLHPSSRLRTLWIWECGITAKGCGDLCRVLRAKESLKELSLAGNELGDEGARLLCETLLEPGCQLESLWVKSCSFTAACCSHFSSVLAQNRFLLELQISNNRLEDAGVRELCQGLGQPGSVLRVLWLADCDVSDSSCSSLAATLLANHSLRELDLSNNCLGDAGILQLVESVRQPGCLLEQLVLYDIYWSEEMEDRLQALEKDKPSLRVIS

Drosha-FLAG (Drosha-WT) = biological target: T2, Drosha-FLAG (Drosha-WT) (UniProt Q9NRR4); assay: as above
T2 sequence: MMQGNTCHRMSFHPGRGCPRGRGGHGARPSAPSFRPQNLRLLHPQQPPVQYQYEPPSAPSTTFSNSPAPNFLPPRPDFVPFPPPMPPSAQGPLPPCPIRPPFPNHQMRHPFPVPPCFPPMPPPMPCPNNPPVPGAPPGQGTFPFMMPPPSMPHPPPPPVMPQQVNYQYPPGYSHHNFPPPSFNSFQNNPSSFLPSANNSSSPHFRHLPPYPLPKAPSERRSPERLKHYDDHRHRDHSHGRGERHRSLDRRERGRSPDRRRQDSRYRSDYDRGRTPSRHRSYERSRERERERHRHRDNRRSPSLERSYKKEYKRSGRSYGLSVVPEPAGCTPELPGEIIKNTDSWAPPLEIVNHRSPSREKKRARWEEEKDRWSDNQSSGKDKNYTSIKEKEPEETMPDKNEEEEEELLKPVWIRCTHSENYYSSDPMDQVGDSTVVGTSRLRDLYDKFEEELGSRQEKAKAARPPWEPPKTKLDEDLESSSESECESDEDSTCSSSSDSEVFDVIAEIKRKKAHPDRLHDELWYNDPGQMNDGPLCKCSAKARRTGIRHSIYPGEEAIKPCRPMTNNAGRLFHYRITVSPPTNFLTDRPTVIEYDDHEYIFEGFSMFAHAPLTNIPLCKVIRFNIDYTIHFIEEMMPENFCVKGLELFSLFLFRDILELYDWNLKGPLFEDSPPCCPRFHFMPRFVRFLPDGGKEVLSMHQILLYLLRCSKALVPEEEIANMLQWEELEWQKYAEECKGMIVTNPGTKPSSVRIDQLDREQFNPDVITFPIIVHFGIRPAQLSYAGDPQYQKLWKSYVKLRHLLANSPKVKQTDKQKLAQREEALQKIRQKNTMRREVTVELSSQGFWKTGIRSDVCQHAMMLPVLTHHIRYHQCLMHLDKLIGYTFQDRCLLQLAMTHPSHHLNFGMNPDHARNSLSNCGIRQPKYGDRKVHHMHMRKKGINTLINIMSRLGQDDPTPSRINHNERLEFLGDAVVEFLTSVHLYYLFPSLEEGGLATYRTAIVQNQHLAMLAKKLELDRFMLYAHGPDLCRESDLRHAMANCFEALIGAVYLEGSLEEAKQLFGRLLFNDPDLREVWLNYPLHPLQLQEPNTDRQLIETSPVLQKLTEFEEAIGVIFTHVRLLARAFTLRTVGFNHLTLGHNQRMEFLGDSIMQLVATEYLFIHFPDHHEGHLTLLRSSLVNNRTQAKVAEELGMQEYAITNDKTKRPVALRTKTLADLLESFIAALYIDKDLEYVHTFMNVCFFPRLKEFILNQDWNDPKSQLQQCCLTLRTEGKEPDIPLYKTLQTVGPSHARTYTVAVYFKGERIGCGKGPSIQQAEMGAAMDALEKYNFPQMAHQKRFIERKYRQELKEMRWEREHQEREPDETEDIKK

- binding (FLAG-RNH1 (human)): binds
B1: Drosha, endogenous (enzyme, UniProt Q9NRR4 1-1374)
chain: T2 sequence

B2: hemagglutinin (HA)-tagged RNH1 (ribonuclease/angiogenin inhibitor 1) (protein, UniProt P13489 1-461)
chain: T1 sequence
- binding (Drosha-FLAG (Drosha-WT)): binds
